According to PubChem BioAssay AID1347426 (Functional Genomics Laboratory (NCATS/FGL), 2020):
About 1,400 (4.5%) of roughly 31,000 sequences were called active.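 The calls were made as follows: active = median seed-adjusted z-score above 1 or below -1; inactive = the rest.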 This is one part of the list.

Assay: Novel Modifiers of Survival Motor Neuron (SMN) Protein: Gene Identification via Genome-wide siRNA Screen;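 also: luminescence tracks full-length SMN protein made from the SMN2 reporter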
Conditions: HEK293T SMN2-luciferase reporter, siRNA knockdown, 72 h; actives lie on both sides
How it was run: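 HEK293T cells stably carrying an SMN2 promoter/splicing cassette–luciferase reporter were reverse-transfected with 1 pmol siRNA per well (druggable-genome library, 3 siRNAs per gene) and grown 72 h at 37 °C. Luminescence, normalized to negative-control siRNA and log10-transformed, was scored as MAD.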

Sequence | median seed-adjusted z-score
GUACAGUCUUUAUCCACCATT against ACSM1 | inactive: 0.658
GGCAUUAACUAACAUAGCATT against KPNA3 | inactive: 0.383
GGAUGGCCAUUGAAGGGAUTT against ECHDC2 | inactive: -0.0827
AUCCAGAAGUUGUCAGUCATT against PAK6 | inactive: -0.57
GGACAUUUGCAUACUCCUATT against PPP1R14D | inactive: 0
GGAACAGGAUGAAUAUGCATT against HADHB | inactive: -0.188
CUAUACCUGUAAUUGCUAATT against DUS4L | inactive: 0.525
CAUGAUAAGCUUCUGGUUATT against VHLL | inactive: -0.0852
GGCCUUUGUCGGUGACAUUTT against NPTXR | inactive: 0.0818
ACAUCGUCAUGGAGAUUGATT against FADS2 | inactive: 0.0769
GAACCAGACAGAGCCUGAATT against ABCC6 | inactive: 0.108
GGUGGAAUAUUACCAGUCATT against MARVELD3 | inactive: -0.021
GUAACAACAAGUACUCCUATT against KCTD13 | inactive: -0.273
GCACCGCACCACCAACUUUTT against EN1 | inactive: 0.761
GGUGGACAGGGUAAAAGAATT against TAF13 | inactive: -0.919
GAACUCAUCAAAAUGCACATT against KLF15 | inactive: -0.45
GCCCUUAGAUUCAGAUAGATT against MASTL | inactive: -0.195
CGUGUGGACUUGACAAGCATT against OBSCN | inactive: -0.798
GCAUAUAUGAUCAUUCAAUTT against RRAGD | inactive: 0.313
GAGUCCUCUUGUGACCUCATT against LILRB4 | inactive: -0.104
CACUCACGGUGGAAUUGAATT against AOX1 | inactive: -0.0717
AGUCCUUUGUUUACAAGAATT against B3GALT5 | inactive: 0.144

Sequence | median seed-adjusted z-score
GGAUGGACUUUAUCCAGCATT against TM7SF4 | inactive: 0.0246
CAAACCGAAUAGAAACUUUTT against PSMC1 | active: -2.23
CAAUAUUGUUGGUUAUCCUTT against DMGDH | inactive: 0.0323
CUACCUGAUAAAUACCCUUTT against UBE2H | inactive: 0
ACGUAUGCAUGCUAAAUUATT against MNX1 | inactive: 0.734
GGAACAAUCUGAGUGCGGUTT against ADORA1 | inactive: 0.022
GGAUAUCAUCUAGUGAUCUTT against CDKL3 | inactive: 0.243
GCCCUAUUAUAUACAUCAATT against SEC24B | inactive: -0.493
GGACGUAACUAGUAACUUUTT against KCNN3 | inactive: -0.625
GAUUAAAGGUCAGCACUUATT against GSTT1 | inactive: 0.0781
GACCCAGCCGAAUACAACATT against NDUFB4 | inactive: -0.697
CCAUAGGCAGUCCUCCUAATT against USP38 | inactive: 0.216
CAAUCUCAAUGGGCUUGCATT against DLX3 | inactive: 0
CCAUUGACAAUCUAAACAATT against QPCT | inactive: 0.933
UCUUCGUCCUCAACAGUGATT against GMPPB | inactive: 0.154
GCACCGCGUUUGUCAAGUUTT against ASAP1 | inactive: 0.0592
GGAACUGAAUGUGGAUUCATT against MAP3K6 | inactive: 0
GGAAUGCUAUGAUAGACGATT against GNAQ | active: -1.23
UGCCUAUUGUGGAACCUGATT against ALDOC | inactive: 0.119
GGAUCUCGACUACAUAUAUTT against SLC5A12 | inactive: 0.279
CGGUGAAAUUCGCCUGUGATT against INMT | inactive: 0.863
GCUUUGGAAUUUCACUAUATT against RIPK5 | inactive: -0.00523

Sequence | median seed-adjusted z-score
GAUAUUACGUUGACUGAGATT against C4BPA | inactive: 0.309
GGAUCAGCCUCAUCACCGATT against G6PC3 | inactive: -0.13
UGAGAGCCCUAAUACUAAATT against FIZ1 | inactive: 0.154
GCAGACCAGUUUAACAUCATT against KLHL10 | inactive: 0.0708
CUACUUUUAUCUUGCAUAATT against ZNF264 | inactive: 0.617
AUGUAUCUACUGUGCGUUUTT against CTGLF1 | inactive: 0.0231
GGUUACUUGUAUAUCGCUATT against TIE1 | inactive: 0.0629
CCUACGCGGGUAUCAGAAATT against ROBO1 | inactive: -0.096
GCAUGACCAUUGGGAUGUUTT against POLR1B | inactive: -0.434
CGAACUCCGCUUUUUCUUATT against FZD7 | inactive: -0.159
ACUGCUCACUUGUCAAUGATT against XRCC6BP1 | inactive: 0.128
GCUACACGGAAGUUGCUAATT against DNAH2 | inactive: -0.342
GCCGGUGCAUUUUACGGUUTT against RARS | inactive: -0.268
CCGUGAUCCUCACCAACUATT against REN | inactive: -0.48
CGAACUAGAUGAGACCAAATT against YKT6 | inactive: -0.065
GGGUCCAACGUAUCUCUUATT against PTPRR | inactive: 0.502
GCAACAUCACGGAGUCAUATT against UBE2Q1 | inactive: -0.241
CCAACUACCCAGACGAUUATT against BMP1 | inactive: -0.298
GGUUGUUAGUGGAUCAUCATT against FBXW11 | inactive: 0.206
CGAAAGGUCAGAUCAACAATT against SERPINB5 | inactive: -0.0181
GGCUUGCGAGUGUCACAAATT against DMRTC2 | inactive: 0
GCAGUGAAGUAGCAUCAAUTT against ISL1 | inactive: 0.138

Sequence | median seed-adjusted z-score
CCUCGUAACUUCACAGGUATT against ULK4 | inactive: 0.0834
CCAGUUCUUUAGGAUCUAUTT against GPR141 | inactive: -0.777
GGAAGACUUUUAAUGUACATT against ZNF578 | inactive: -0.808
CCAUUCAGCCUGAUCUAAATT against REPS1 | inactive: 0.185
GAUCCGUUGGUGCAUGAAATT against ABHD2 | active: -1.21
GCAGCAUCUUUUUCCGAAUTT against GJB6 | inactive: 0.0376
GCAGAUCACUAACAUCGCUTT against POLA1 | inactive: -0.317
CGGACAGGCUGAUGACUCATT against SHH | inactive: -0.517
GGUCUUUAUUCGGAAGCGATT against ZNF525 | inactive: 0.134
GGAACAAGAGAAGAGGUUATT against DDX41 | inactive: -0.611
GCAUAGAAUGUCAAGCUAATT against RBX1 | inactive: -0.000499
GCGUGGUGCAGUUCUGUGATT against ASB2 | inactive: -0.825
GGACACCAAUGGAGACAUATT against TRIM3 | inactive: -0.215
GCCUGGAAAUUGUCUACAATT against ATP4B | inactive: -0.609
GCAUCGCCGAAGAUAGAUUTT against NUP153 | inactive: -0.847
GGAUCAAGAUGCAAUUGAUTT against TRHDE | inactive: 0.429
CUAUAACAUCGAAGACUUUTT against ARNT2 | inactive: -0.244
GAGCUGCAUUAUGAAAUUATT against CCL18 | inactive: 0.169
CCCGAUGCCGGAACAAGAATT against JDP2 | inactive: -0.202
GGACGGUUCUUGUUCCAGUTT against PDIA5 | inactive: 0.989
GUGCUUCAGUAGGUAUGUATT against ASNS | active: -1.1
GGAACUAGAUUACUUUGCUTT against PGK2 | inactive: -0.127

Sequence | median seed-adjusted z-score
GCACUUGGAUAGACAACAATT against SEC24D | inactive: 0.529
GAUUUUUACCUUACGAUCATT against GPN3 | inactive: -0.796
CGAAUUCCUCGUCAACGAATT against HOXD12 | inactive: -0.18
GGGUACCUCUCUGACAACATT against SLC25A10 | inactive: -0.571
GGAACCAAAUGCAAGGUUATT against GZMK | inactive: -0.303
GCCUGUAUAUGAGAGCCUUTT against OTUD7B | inactive: 0.226
GAAGAUGAGUUCUACCAGATT against VPS72 | inactive: 0.572
UCCUUAUCAUGAACCUGCATT against CHRNA10 | inactive: 0.521
GGCAAACCGUUGGAACCAATT against AFF1 | inactive: -0.0394
UCCUCAACGUGGAUGAGAATT against HTR3A | inactive: 0.37
CAACCUUGCAGACAACGUATT against CEBPG | inactive: -0.561
GGGCAAAAUUCUCAGCGAATT against CIT | inactive: -0.0585
CAGUUGUUGUGGUUGAGAATT against STX2 | inactive: 0.442
CCGAAGCUGUGGAGGUGAATT against HTR5A | inactive: -0.0687
GGUCACGUCUGUUACCUGATT against GBA3 | inactive: 0.246
AGAACGUGGUCAUCAAAGUTT against ZC3H3 | inactive: -0.622
GGCUUCAGGUUAUAGUCAATT against OTX2 | inactive: -0.00351
GCUCCUUAAGGAUAACUAATT against NTRK2 | inactive: 0.103
ACUACCUUCUCAUCAAGGATT against CCL19 | inactive: 0.0364

Looked up one by one from the list above (5):
Sequence | median seed-adjusted z-score
GCAUAGAAUGUCAAGCUAATT against RBX1 | inactive: -0.000499
CUAUACCUGUAAUUGCUAATT against DUS4L | inactive: 0.525
GGAUGGACUUUAUCCAGCATT against TM7SF4 | inactive: 0.0246
GAGUCCUCUUGUGACCUCATT against LILRB4 | inactive: -0.104
GCACCGCACCACCAACUUUTT against EN1 | inactive: 0.761
